Data on one substance can be found in PMC12071771.

The chains behind the UniProt entries cited, without tags or fusion partners.
UniProt O70436: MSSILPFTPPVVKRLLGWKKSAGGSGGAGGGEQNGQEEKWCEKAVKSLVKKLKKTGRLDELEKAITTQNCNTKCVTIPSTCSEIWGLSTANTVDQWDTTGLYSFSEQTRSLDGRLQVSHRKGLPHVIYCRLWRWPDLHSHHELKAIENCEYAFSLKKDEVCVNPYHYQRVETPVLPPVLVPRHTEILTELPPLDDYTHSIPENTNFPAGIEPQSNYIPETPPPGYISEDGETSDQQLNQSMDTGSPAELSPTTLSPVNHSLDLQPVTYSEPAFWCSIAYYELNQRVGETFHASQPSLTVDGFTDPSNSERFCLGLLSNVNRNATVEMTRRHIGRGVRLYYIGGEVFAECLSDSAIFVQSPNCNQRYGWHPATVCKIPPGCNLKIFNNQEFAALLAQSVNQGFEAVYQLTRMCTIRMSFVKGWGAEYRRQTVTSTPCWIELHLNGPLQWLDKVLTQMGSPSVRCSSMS
UniProt O70437: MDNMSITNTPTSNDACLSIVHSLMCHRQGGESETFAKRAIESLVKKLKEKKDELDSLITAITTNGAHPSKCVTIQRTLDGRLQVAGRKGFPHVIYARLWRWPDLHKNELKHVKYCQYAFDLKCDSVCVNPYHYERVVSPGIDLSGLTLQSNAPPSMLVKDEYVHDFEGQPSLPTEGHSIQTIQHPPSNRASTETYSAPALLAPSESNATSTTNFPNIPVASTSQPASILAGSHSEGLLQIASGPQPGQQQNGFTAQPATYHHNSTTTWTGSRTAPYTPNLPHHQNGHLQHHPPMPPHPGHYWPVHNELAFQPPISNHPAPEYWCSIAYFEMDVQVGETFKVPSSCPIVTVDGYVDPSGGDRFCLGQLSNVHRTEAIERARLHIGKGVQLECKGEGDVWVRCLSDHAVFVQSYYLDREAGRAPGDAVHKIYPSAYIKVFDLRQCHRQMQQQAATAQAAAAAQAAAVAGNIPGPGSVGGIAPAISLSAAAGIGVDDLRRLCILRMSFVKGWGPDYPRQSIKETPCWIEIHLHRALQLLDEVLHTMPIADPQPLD

No constants are given. Whether binding was seen depends on the method and setting. Binding seen in cells or lysates may run through a third protein. Some results given as binding are weak or reduced against the parent protein; the word gives no strength.

The assay concerns the target Smad2 (rat (endogenous in RBL-2H3)) (UniProt O70436). The experiment in a line: co-IP; RBL-2H3 cells stimulated with 100 pM TGF-β for the indicated times (5 min to 24 h); lysed in modified lysis buffer (1% NP-40, 60 mM octyl-β-glucoside); 300 μg of protein per IP; detection by WB.

Regarding Smad4 (from UniProt O70437 1-552), the binding result was “binds”.
